Measurements reported in PubChem BioAssay AID1259254 (NCATS, 2017)
Aim: 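Genome-wide screen for genes that prevent DNA re-replication in cancer cells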 (primary screen). Cells: human HCT116 colorectal cancer cells. Knock-down reagent: single siRNA against human genes. Duration: 3 days. Measured: 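Imaged Hoechst DNA stain sorts each cell into a cycle phase by DNA amount; per plate, G2 fraction set to 0% for non-targeting and 100% for GMNN siRNA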. Reading the numbers: G2 robust z-score and G2 cells, % of GMNN control: higher = more G2 cells, more excess DNA replication. Rule for the call: 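An siRNA counts as active if its G2 robust z-score lies at least 5 MADs above the screen median; here such calls match roughly 38% of GMNN control or more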.
Here is an unselected part of about 59,000 reagents. About 1,550 of them (2.6%) were called active. 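G2 share is only a proxy for re-replication; each gene was hit by three separate siRNAs, and active genes were retested.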 The numbers tell different reagents against one gene apart. Further read-outs or replicates are left out here. The record does not give: the amount of reagent.

| G2 robust z-score | G2 cells, % of GMNN control | activity call | gene | reagent |
| --- | --- | --- | --- | --- |
| 1.71 | 15 | inactive | LECT2 (leukocyte cell derived chemotaxin 2) | 1 |
| 0.935 | 9.55 | inactive | LECT2 (leukocyte cell derived chemotaxin 2) | 2 |
| -0.406 | 0.111 | inactive | LECT2 (leukocyte cell derived chemotaxin 2) | 3 |
| -0.864 | -3.11 | inactive | ADA2 (adenosine deaminase 2) | 1 |
| -0.849 | -3.01 | inactive | ADA2 (adenosine deaminase 2) | 2 |
| 1.97 | 16.8 | inactive | ADA2 (adenosine deaminase 2) | 3 |
| 0.634 | 7.43 | inactive | PDIA6 (protein disulfide isomerase family A member 6) | 1 |
| -0.561 | -0.978 | inactive | PDIA6 (protein disulfide isomerase family A member 6) | 2 |
| 2.27 | 18.9 | inactive | PDIA6 (protein disulfide isomerase family A member 6) | 3 |
| 0.135 | 3.92 | inactive | ZSCAN29 (zinc finger and SCAN domain containing 29) | 1 |
| -0.711 | -2.03 | inactive | ZSCAN29 (zinc finger and SCAN domain containing 29) | 2 |
| -0.0157 | 2.86 | inactive | ZSCAN29 (zinc finger and SCAN domain containing 29) | 3 |
| 1.31 | 12.2 | inactive | OR51Q1 (olfactory receptor family 51 subfamily Q member 1) | 1 |
| 1.42 | 13 | inactive | OR51Q1 (olfactory receptor family 51 subfamily Q member 1) | 2 |
| -0.0848 | 2.37 | inactive | OR51Q1 (olfactory receptor family 51 subfamily Q member 1) | 3 |
| 0.79 | 8.53 | inactive | OR5W2 (olfactory receptor family 5 subfamily W member 2) | 1 |
| -0.528 | -0.747 | inactive | OR5W2 (olfactory receptor family 5 subfamily W member 2) | 2 |
| -1.15 | -5.1 | inactive | OR5W2 (olfactory receptor family 5 subfamily W member 2) | 3 |
| -0.815 | -2.77 | inactive | MID2 (midline 2) | 1 |
| 3.23 | 25.7 | inactive | MID2 (midline 2) | 2 |
| -0.92 | -3.5 | inactive | MID2 (midline 2) | 3 |
| 0.614 | 7.29 | inactive | NDUFB7 (NADH:ubiquinone oxidoreductase subunit B7) | 1 |
| 1.5 | 13.5 | inactive | NDUFB7 (NADH:ubiquinone oxidoreductase subunit B7) | 2 |
| -1.27 | -5.98 | inactive | NDUFB7 (NADH:ubiquinone oxidoreductase subunit B7) | 3 |
| -0.201 | 1.55 | inactive | CHP1 (calcineurin like EF-hand protein 1) | 1 |
| -0.344 | 0.55 | inactive | CHP1 (calcineurin like EF-hand protein 1) | 2 |
| -0.745 | -2.28 | inactive | CHP1 (calcineurin like EF-hand protein 1) | 3 |
| -0.396 | 0.18 | inactive | MAP4 (microtubule associated protein 4) | 1 |
| 3.02 | 24.2 | inactive | MAP4 (microtubule associated protein 4) | 2 |
| 1.32 | 12.2 | inactive | MAP4 (microtubule associated protein 4) | 3 |
| -0.668 | -1.73 | inactive | DEUP1 (deuterosome assembly protein 1) | 1 |
| -0.486 | -0.453 | inactive | DEUP1 (deuterosome assembly protein 1) | 2 |
| 1.05 | 10.4 | inactive | DEUP1 (deuterosome assembly protein 1) | 3 |
| 0.266 | 4.84 | inactive | UNC5B-AS1 (UNC5B antisense RNA 1) | 1 |
| 1.25 | 11.7 | inactive | UNC5B-AS1 (UNC5B antisense RNA 1) | 2 |
| -0.516 | -0.662 | inactive | UNC5B-AS1 (UNC5B antisense RNA 1) | 3 |
| -0.904 | -3.39 | inactive | MCEMP1 (mast cell expressed membrane protein 1) | 1 |
| 0.528 | 6.68 | inactive | MCEMP1 (mast cell expressed membrane protein 1) | 2 |
| -0.0537 | 2.59 | inactive | MCEMP1 (mast cell expressed membrane protein 1) | 3 |
| 0.123 | 3.83 | inactive | CPB2 (carboxypeptidase B2) | 1 |
| -0.765 | -2.42 | inactive | CPB2 (carboxypeptidase B2) | 2 |
| -0.931 | -3.59 | inactive | CPB2 (carboxypeptidase B2) | 3 |
| 8.34 | 61.6 | active | AFM (afamin) | 1 |
| -0.743 | -2.26 | inactive | AFM (afamin) | 2 |
| 0.222 | 4.53 | inactive | AFM (afamin) | 3 |
| 1.71 | 15 | inactive | CFD (complement factor D) | 1 |
| -0.28 | 0.996 | inactive | CFD (complement factor D) | 2 |
| -0.659 | -1.67 | inactive | CFD (complement factor D) | 3 |
| -0.57 | -1.04 | inactive | TOP3A (DNA topoisomerase III alpha) | 1 |
| 0.593 | 7.14 | inactive | TOP3A (DNA topoisomerase III alpha) | 2 |
| 4.66 | 35.8 | inactive | TOP3A (DNA topoisomerase III alpha) | 3 |
| -0.972 | -3.87 | inactive | CEACAM19 (CEA cell adhesion molecule 19) | 1 |
| 1.5 | 13.5 | inactive | CEACAM19 (CEA cell adhesion molecule 19) | 2 |
| 0.0254 | 3.15 | inactive | CEACAM19 (CEA cell adhesion molecule 19) | 3 |
| 0.844 | 8.91 | inactive | RPL22 (ribosomal protein L22) | 1 |
| -0.319 | 0.722 | inactive | RPL22 (ribosomal protein L22) | 2 |
| 0.365 | 5.53 | inactive | RPL22 (ribosomal protein L22) | 3 |
| -0.473 | -0.36 | inactive | AXDND1 (axonemal dynein light chain domain containing 1) | 1 |
| 2.62 | 21.4 | inactive | AXDND1 (axonemal dynein light chain domain containing 1) | 2 |
| -0.635 | -1.5 | inactive | AXDND1 (axonemal dynein light chain domain containing 1) | 3 |
| -0.237 | 1.3 | inactive | SLC2A8 | 1 |
| 0.181 | 4.24 | inactive | SLC2A8 | 2 |
| -0.246 | 1.24 | inactive | SLC2A8 | 3 |
| -0.96 | -3.79 | inactive | VDR (vitamin D receptor) | 1 |
| 0.505 | 6.52 | inactive | VDR (vitamin D receptor) | 2 |
| -0.0158 | 2.86 | inactive | VDR (vitamin D receptor) | 3 |
| 0.0136 | 3.06 | inactive | VNN1 (vanin 1) | 1 |
| 3.49 | 27.5 | inactive | VNN1 (vanin 1) | 2 |
| 0.0737 | 3.49 | inactive | VNN1 (vanin 1) | 3 |
| -0.0873 | 2.35 | inactive | CDCA2 (cell division cycle associated 2) | 1 |
| -0.46 | -0.27 | inactive | CDCA2 (cell division cycle associated 2) | 2 |
| -0.403 | 0.133 | inactive | CDCA2 (cell division cycle associated 2) | 3 |
| -0.524 | -0.718 | inactive | TMEM116 (transmembrane protein 116) | 1 |
| -0.0421 | 2.67 | inactive | TMEM116 (transmembrane protein 116) | 2 |
| -0.103 | 2.24 | inactive | TMEM116 (transmembrane protein 116) | 3 |
| -0.246 | 1.24 | inactive | TMEM116 (transmembrane protein 116) | 4 |
| -0.38 | 0.295 | inactive | TMEM116 (transmembrane protein 116) | 5 |
| 2.14 | 18 | inactive | TMEM116 (transmembrane protein 116) | 6 |
| 0.761 | 8.32 | inactive | DDX23 (DEAD-box helicase 23) | 1 |
| 2.63 | 21.5 | inactive | DDX23 (DEAD-box helicase 23) | 2 |
| -0.176 | 1.73 | inactive | DDX23 (DEAD-box helicase 23) | 3 |
| -0.968 | -3.84 | inactive | COX17 (cytochrome c oxidase copper chaperone COX17) | 1 |
| -0.741 | -2.25 | inactive | COX17 (cytochrome c oxidase copper chaperone COX17) | 2 |
| -1.3 | -6.14 | inactive | COX17 (cytochrome c oxidase copper chaperone COX17) | 3 |
| -0.64 | -1.54 | inactive | DEGS2 (delta 4-desaturase, sphingolipid 2) | 1 |
| 0.054 | 3.35 | inactive | DEGS2 (delta 4-desaturase, sphingolipid 2) | 2 |
| -0.803 | -2.68 | inactive | DEGS2 (delta 4-desaturase, sphingolipid 2) | 3 |

12 of these entries, reformatted:
CHP1 (calcineurin like EF-hand protein 1) #2
- G2 robust z-score: -0.344
- G2 cells, % of GMNN control: 0.55
- activity call: inactive

CHP1 (calcineurin like EF-hand protein 1) #3
- G2 robust z-score: -0.745
- G2 cells, % of GMNN control: -2.28
- activity call: inactive

MAP4 (microtubule associated protein 4) #1
- G2 robust z-score: -0.396
- G2 cells, % of GMNN control: 0.18
- activity call: inactive

MAP4 (microtubule associated protein 4) #2
- G2 robust z-score: 3.02
- G2 cells, % of GMNN control: 24.2
- activity call: inactive

MAP4 (microtubule associated protein 4) #3
- G2 robust z-score: 1.32
- G2 cells, % of GMNN control: 12.2
- activity call: inactive

DEUP1 (deuterosome assembly protein 1) #1
- G2 robust z-score: -0.668
- G2 cells, % of GMNN control: -1.73
- activity call: inactive

DEUP1 (deuterosome assembly protein 1) #2
- G2 robust z-score: -0.486
- G2 cells, % of GMNN control: -0.453
- activity call: inactive

DEUP1 (deuterosome assembly protein 1) #3
- G2 robust z-score: 1.05
- G2 cells, % of GMNN control: 10.4
- activity call: inactive

UNC5B-AS1 (UNC5B antisense RNA 1) #1
- G2 robust z-score: 0.266
- G2 cells, % of GMNN control: 4.84
- activity call: inactive

UNC5B-AS1 (UNC5B antisense RNA 1) #2
- G2 robust z-score: 1.25
- G2 cells, % of GMNN control: 11.7
- activity call: inactive

UNC5B-AS1 (UNC5B antisense RNA 1) #3
- G2 robust z-score: -0.516
- G2 cells, % of GMNN control: -0.662
- activity call: inactive

MCEMP1 (mast cell expressed membrane protein 1) #1
- G2 robust z-score: -0.904
- G2 cells, % of GMNN control: -3.39
- activity call: inactive
